The values that follow come from publication PMC7862700.

The list shows a part of the results. The exact form of the protein is not confirmed.

This assay concerns the target T1, ELF2 (UniProt Q15723).
T1 sequence: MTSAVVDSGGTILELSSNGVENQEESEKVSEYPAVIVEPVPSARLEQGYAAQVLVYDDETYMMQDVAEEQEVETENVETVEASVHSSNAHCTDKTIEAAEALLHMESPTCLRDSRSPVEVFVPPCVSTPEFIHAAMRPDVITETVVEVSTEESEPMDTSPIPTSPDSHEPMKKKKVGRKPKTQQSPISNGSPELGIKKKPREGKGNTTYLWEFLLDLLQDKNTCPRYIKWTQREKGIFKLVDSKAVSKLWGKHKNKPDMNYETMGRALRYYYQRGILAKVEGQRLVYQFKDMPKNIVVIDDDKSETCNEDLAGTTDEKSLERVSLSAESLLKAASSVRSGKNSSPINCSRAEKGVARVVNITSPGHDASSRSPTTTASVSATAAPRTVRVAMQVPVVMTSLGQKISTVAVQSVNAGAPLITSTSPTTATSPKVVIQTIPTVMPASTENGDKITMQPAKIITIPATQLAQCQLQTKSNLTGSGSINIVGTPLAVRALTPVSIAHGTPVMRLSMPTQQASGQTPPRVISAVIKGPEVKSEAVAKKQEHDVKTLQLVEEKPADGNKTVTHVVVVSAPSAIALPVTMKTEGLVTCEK
The assay is described as follows: DAPPL (digital affinity profiling via proximity ligation, sequencing). The settings on record: 10 mM Tris-HCl pH 7.5, 50 mM NaCl, 1 mM DTT, 4% glycerol, room temperature, 30 min; GST-TFs on glutathione beads, 16-mer random dsDNA library, 0.1% …; high values mean tight binding; double strand, one strand shown; scale: fold enrichment (6-mer frequency, TF over GST control).
Sequence TCTTGG displayed a binding signal of 1.25.
For TCTGCG the value was 1.12; for AATACG, 1.29; for GGATCA, 0.773.
For TAAGTC the value was 0.894; for TCTGAA, 1.13.
As for TTGGTT, the binding signal turned out to be 1.39.
Turning to CTACTG, the binding signal is 1.21.
For CTGTTC, the binding signal is 1.53.
Sequence CTAGCC displayed a binding signal of 0.974.
Sequence AGAGCT had a binding signal of 0.932.
For CATAGA the value was 0.882; for CCCCGA, 1.08; for TAAAGC, 1.04.
Under CCATTA stands 1.08.
For AGGTCT, the binding signal amounted to 1.08.
For the sequence AATAAA, the binding signal turned out to be 1.34.
On to GCTCCC, for which the binding signal came out at 1.23.
As for TAGACT, the binding signal amounted to 0.925.
Under TACGCA stands 1.12; under GCGTCT, 1.05; under TACCTG, 1.11.
Under TAAACC stands 1.26; under ATGTGC, 1.08.
The sequence AATGTA yielded a binding signal of 1.18.
Under CTTAAA stands 1.15; under TCACTG, 1.09.
For TCCATA the value was 1.27; for ATTTTG, 1.2; for ATTCAT, 1.1.
For TCCTCG the value was 1.45.
Sequence ACGGCT returned a binding signal of 1.03.
In turn, GGATAA gave a binding signal of 0.816.
Under GTTGCT stands 1.28; under CATAAT, 1.02.
For TTCTAT the value was 1.33; for GCGATC, 0.935; for GAGAAT, 0.706.
For TATACG, the binding signal worked out at 1.27.
Turning to CTAGGA, the binding signal was 0.925.
